## Drug screen on melanoma cell lines: cell count

Every entry is a combination with etoposide at 0.02 µM: COc1cc([C@@H]2c3cc4c(cc3[C@@H](O[C@@H]3O[C@@H]5CO[C@@H](C)O[C@H]5[C@H](O)[C@H]3O)[C@H]3COC(=O)[C@H]23)OCO4)cc(OC)c1O

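Human melanoma cells were exposed to two drugs together for 72 h in 1,536-well plates and read by automated microscopy after fixing and staining. Values are the number of DAPI-stained nuclei as a percentage of the DMSO control: 100 is no effect, lower means fewer cells. Every drug was used at one fixed concentration, the lower of two screened (a fifth of the higher). The file gives one value for each pair and line, without errors, so small differences may be noise.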
Only some of the drugs and lines screened are listed, without regard to their results.

| # | Partner | LOX IMVI |
|---|---|---|
| 1 | Cn1cc(C2=C(c3cn(C4CCN(Cc5ccccn5)CC4)c4ccccc34)C(=O)NC2=O)c2ccccc21 at 0.8 µM | 124 |
| 2 | O=C(/C=C/c1cccnc1)NCCCCC1CCN(C(=O)c2ccccc2)CC1 at 0.01 µM | 97.4 |
| 3 | COc1cc2ncnc(Nc3ccc(Oc4ccccc4)cc3)c2cc1OC at 2 µM | 213 |
| 4 | CC(C)CCN1c2nc(Nc3cc(F)c(O)c(F)c3)ncc2N(C)C(=O)C1C (stereo not drawn) at 0.2 µM | 101 |
| 5 | C[C@@H](N)c1ccc(C(=O)Nc2ccnc3[nH]ccc23)cc1 at 0.4 µM | 204 |
| 6 | COc1ccc(COc2ccc(Cc3cnc(N)nc3N)cc2OC)cc1 at 1 µM | 89.4 |
| 7 | COc1ccc2c(c1)CCC1C2CCC2(C)C(NCCCCCCN3C(=O)C=CC3=O)CCC12 (stereo not drawn) at 0.4 µM | 68.0 |
| 8 | Cc1ccc(Nc2nccc(N(C)c3ccc4c(C)n(C)nc4c3)n2)cc1S(N)(=O)=O at 0.4 µM | 92.6 |
| 9 | N.N.[Cl][Pt][Cl] at 1.6 µM | 70.3 |
| 10 | O=C(O)c1ccc(-c2c[nH]c3ncc(-c4ccccc4)cc23)cc1C1CCCC1 at 0.16 µM | 93.3 |
| 11 | Cn1cncc1[C@@](N)(c1ccc(Cl)cc1)c1ccc2c(c1)c(-c1cccc(Cl)c1)cc(=O)n2C at 0.01 µM | 99.5 |
| 12 | CC(=O)c1c(C)c2cnc(Nc3ccc(N4CCNCC4)cn3)nc2n(C2CCCC2)c1=O at 0.04 µM | 78.3 |
| 13 | CC1(C)CCC(c2ccc(Cl)cc2)=C(CN2CCN(c3ccc(C(=O)NS(=O)(=O)c4ccc(N[C@H](CCN5CCOCC5)CSc5ccccc5)c(S(=O)(=O)C(F)(F)F)c4)cc3)CC2)C1 at 0.4 µM | 58.9 |
| 14 | O=C(O)c1ccc2c(c1)nc(Nc1cccc(Cl)c1)c1ccncc12 at 0.4 µM | 79.8 |
| 15 | Cn1cc(/C=C2\C(=O)Nc3cccnc32)c2ccccc21 at 0.4 µM | 107 |
| 16 | O=S(=O)(c1ccccc1)N(CC(F)(F)F)c1ccc(C(O)(C(F)(F)F)C(F)(F)F)cc1 at 1.4 µM | 77.9 |
| 17 | C[C@@H]1CCN(C(=O)CC#N)C[C@@H]1N(C)c1ncnc2[nH]ccc12 at 1 µM | 65.4 |
| 18 | CC1(C)NC(=O)N(c2ccc([N+](=O)[O-])c(C(F)(F)F)c2)C1=O at 1 µM | 94.8 |

Values as published with doi:10.1371/journal.pone.0140310, rounded.